Laboratory results: paper doi:10.1101/2020.06.18.159665
These are yes or no findings as the source states them, for the method shown.

Chains of the proteins cited; added tags and fusions are not shown. Lines headed by an entry give the natural chain unless they say otherwise; changes in a name come on top.
UniProt P49841: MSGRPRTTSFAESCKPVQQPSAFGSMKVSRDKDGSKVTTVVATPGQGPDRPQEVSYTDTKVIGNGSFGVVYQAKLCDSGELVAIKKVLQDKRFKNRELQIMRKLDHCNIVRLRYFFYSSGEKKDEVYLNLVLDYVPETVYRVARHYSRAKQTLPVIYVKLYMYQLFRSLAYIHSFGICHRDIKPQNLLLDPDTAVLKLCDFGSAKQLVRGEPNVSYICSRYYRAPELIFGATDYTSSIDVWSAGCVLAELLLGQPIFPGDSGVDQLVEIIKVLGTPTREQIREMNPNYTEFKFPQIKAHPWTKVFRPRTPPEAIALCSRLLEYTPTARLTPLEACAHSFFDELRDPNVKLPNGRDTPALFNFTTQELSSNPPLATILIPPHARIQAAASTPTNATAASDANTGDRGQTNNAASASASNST

Molecular target: GSK3β-hDISCtide complex (human) (UniProt P49841+Q9NRI5)
Assay: SPR

binding: no binding (tested: 4 μM)
Binder: PEVPPTPPGSHSAFTSSFSFIRLSLGSAGERGEAEGCPPSREAE (peptide, UniProt Q9NRI5 193-236) [hDISCtide, 44-mer peptide derived from human DISC1 (residues 193-236)]
